The data set relates to human DU145-derived prostate cancer xenografts. Description: In vivo phage display random peptide library selection in tumor-bearing mice. Set-up: species or system nude mice. The note with it: n = 75; after three rounds of in vivo selection, 24 hour circulation.

For the sequence “DACSRFLGERVDATAAGCSR (listed as Homo sapiens) [Peptide 40]”, the Frequency worked out at 2.8%.
In the case of “DRCVLVRPEFGRGDARLCHS (listed as Homo sapiens) [Peptide 38]”, the Frequency was 2.8%.
In turn, “EGCSDIMNTAAERVTGDCSY (listed as Homo sapiens) [Peptide 28]” registered a Frequency of 2.8%.
“GNCMGLQVSELFMGPYKCRQ (listed as Homo sapiens) [Peptide 12]” yielded a Frequency of 2.8%.
For “GTCPRQFFHMQEFWPSDCSR (listed as Homo sapiens) [Peptide 43]”, the Frequency stood at 4.1%.
Consider “IGCNHPSPLGSTVVPTYCFK (listed as Homo sapiens) [Peptide 46]”, for which the Frequency amounted to 4.1%.
In turn, “LGCMASMLREFEGATHACTQ (listed as Homo sapiens) [Peptide 37]” displayed a Frequency of 10.7%.
Then “RECGRTVHRYPWGSPESCER (listed as Homo sapiens) [Peptide 36]”, with 2.8%.
Then “RGCTEAAGLVIGITTHQCGN (listed as Homo sapiens) [Peptide 24]”, with 4.1%; and “VFCCGSYCGGVEMLASRCGH (listed as Homo sapiens) [Peptide 25]”, with 2.8%.
“YRCTLNSPFFWEDMTHECHA (listed as Homo sapiens) [Peptide 6]” gave a Frequency of 14.7%.

The values are drawn from patent US20110189095A1, “CRKL TARGETING PEPTIDES” (The Board of Regents, of the University of Texas System, priority 2008, published 2011).
